# Data reported in PMC6974622, “DeepMalaria: Artificial Intelligence Driven Discovery of Potent Antiplasmodials” (Frontiers in Pharmacology, 2020).
# Test system: human hepatoma cell line HepG2
# Assay: MTS based cytotoxicity assay (counter-screen for selectivity)
# Type: cell-based
# Conditions: selectivity index, HepG2 versus Pf
# Procedure: Selectivity was determined by counter-screening against human hepatoma cell line HepG2 in a MTS (3-(4,5-Dimethylthiazol-2-yl)-5-(3-carboxymethoxyphenyl)-2-(4-sulfophenyl)-2H-tetrazolium) based cytotoxicity assay (CellTiter 96® Aqueous One, Promega, Madison, WI) ([Riss et al., 2004]). Briefly, microtiter plates were seeded with 1,500 cells per well in a 384 well plate and incubated for 24 h at 37°C in 5% CO2/95% air atmosphere. The next day, compounds were added at seven different serially diluted concentrations starting at 25 µM d incubated for additional 48 h at stated conditions. MTS solution was next added to each well, incubated for additional 3 h at 37°C, and absorbance was read at 490 nm using BioTek Synergy neo 2 plate reader. Untreated cells served as control. Curve fitting was performed using GraphPad Prism and EC50 value was determined.
row,SMILES,Toxicity SI
1,"CN1CCOc2ccccc2CCCCCC2(CCN(C(=O)[C@H](N)c3ccccc3)CC2)C1=O [DC-9239, CN1CCOC2=C(CCCCCC3(CCN(CC3)C(=O)[C@H](N)C3=CC=CC=C3)C1=O)C=CC=C2]",25
2,"CCc1nc2ccccc2c(C(=O)N2CCC3(CCCCOCCNC(=O)c4ccccc4OC3)CC2)c1C [DC-5931, CCC1=NC2=C(C=CC=C2)C(C(=O)N2CCC3(CC2)CCCCOCCNC(=O)C2=C(OC3)C=CC=C2)=C1C]",>40
3,"Cc1cc(C)n(Cc2c(C(=O)N3CCC4(CCCCOC[C@@H]5CCCN5C(=O)c5cccc(c5)OC4)CC3)noc2C)n1 [DC-5921, CC1=NN(CC2=C(C)ON=C2C(=O)N2CCC3(CC2)CCCCOC[C@@H]2CCCN2C(=O)C2=CC(OC3)=CC=C2)C(C)=C1]",>40
4,"CC(C)C[C@@H](N)C(=O)N1CCC2(CCCCCc3ccccc3OCCN(C)C2=O)CC1 [DC-9236, CC(C)C[C@@H](N)C(=O)N1CCC2(CC1)CCCCCC1=C(OCCN(C)C2=O)C=CC=C1]",15.9
5,"CCC1C2=NC(Cc3ccccc3)=C(O2)N(Cc2ccccc2)Cc2cn(nn2)CCCCN1Cc1ccccc1OCCN(C)C (centres unmarked) [DC-9237, CCC1N(CC2=CC=CC=C2OCCN(C)C)CCCCN2C=C(CN(CC3=CC=CC=C3)C3=C(CC4=CC=CC=C4)N=C1O3)N=N2]",35.3
